# Assay results published in the supplement of paper PMC8728848.
# The other results are listed elsewhere or left out.
# B1: AFL6 (Aspergillus fumigatus), Q4WKJ1 (protein)
# chain: MSFHLTAEDIRIEDGHRLVARLRNADGDLQDASIDLNTCLGNDNGHFQWDGVDFSHSAQDVHFAIEGGGQVPVLRAQLANQDGEFQDADVNLSERIENINGEFVFH
# Experiments:
# Assay in all cases: glycan array binding signal (z-score within array); higher = stronger binding
# Details in all cases: glycan notation: IUPAC condensed, linker removed
# [1] = molecular target: Fuc(a1-2)[GalNAc(b1-3)]Gal
# In short: (§1)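 Glycan array data came from 3228 arrays in the Consortium for Functional Glycomics database, and only arrays with an available protein sequence were kept. Glycan names were put into IUPAC-condensed notation, and columns mapping to the same glycan were averaged. The binding signal is a within-array Z-score, averaged across arrays of one protein sequence run at different concentrations or buffers and across linkers. A negative Z-score can be read as non-binding.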
# Fuc(a1-3)GlcNAc = molecular target: Fuc(a1-3)GlcNAc
# In short: as §1
# [2] = molecular target: Fuc(a1-3)[Gal(b1-4)]Glc6S
# In short: as §1
# [3] = molecular target: Fuc(a1-3)[Gal(b1-4)]GlcNAc
# In short: as §1
# [4] = molecular target: Fuc(a1-3)[Gal(b1-4)]GlcNAc(b1-2)Man
# In short: as §1
# [5] = molecular target: Fuc(a1-3)[Gal(b1-4)]GlcNAc(b1-2)Man(a1-3)[Fuc(a1-3)[Gal(b1-4)]GlcNAc(b1-2)Man(a1-6)]Man(b1-4)GlcNAc(b1-4)GlcNAc
# In short: as §1
# [6] = molecular target: Fuc(a1-3)[Gal(b1-4)]GlcNAc(b1-2)Man(a1-3)[Fuc(a1-3)[Gal(b1-4)]GlcNAc(b1-2)Man(a1-6)]Man(b1-4)GlcNAc(b1-4)[Fuc(a1-6)]GlcNAc
# In short: as §1
# [7] = molecular target: Fuc(a1-3)[Gal(b1-4)]GlcNAc(b1-3)Gal(b1-3)[Fuc(a1-4)]GlcNAc
# In short: as §1
# [8] = molecular target: Fuc(a1-3)[Gal(b1-4)]GlcNAc(b1-3)Gal(b1-4)[Fuc(a1-3)]GlcNAc
# In short: as §1
# [9] = molecular target: Fuc(a1-3)[Gal(b1-4)]GlcNAc(b1-3)Gal(b1-4)[Fuc(a1-3)]GlcNAc(b1-3)Gal(b1-4)[Fuc(a1-3)]GlcNAc
# In short: as §1
# [10] = molecular target: Fuc(a1-3)[Gal(b1-4)]GlcNAc(b1-3)GalNAc
# In short: as §1
# [11] = molecular target: Fuc(a1-3)[Gal(b1-4)]GlcNAc(b1-6)GalNAc
# In short: as §1
# [12] = molecular target: Fuc(a1-3)[Gal(b1-4)]GlcNAc(b1-6)[Gal(b1-3)GlcNAc(b1-3)]Gal(b1-4)Glc
# In short: as §1
# [13] = molecular target: Fuc(a1-3)[Gal(b1-4)]GlcNAc6S
# In short: as §1
# [14] = molecular target: Fuc(a1-3)[Gal3S(b1-4)]Glc
# In short: as §1
# [15] = molecular target: Fuc(a1-3)[Gal3S(b1-4)]GlcNAc
# In short: as §1
# [16] = molecular target: Fuc(a1-3)[Gal3S(b1-4)]GlcNAc6S
# In short: as §1
# [17] = molecular target: Fuc(a1-3)[GalNAc(b1-4)]GlcNAc
# In short: as §1
# [18] = molecular target: Fuc(a1-3)[GalNAc(b1-4)]GlcNAc6S
# In short: as §1
# Fuc(a1-4)GlcNAc = molecular target: Fuc(a1-4)GlcNAc
# In short: as §1
# Fuc(b1-3)GlcNAc = molecular target: Fuc(b1-3)GlcNAc
# In short: as §1
# Gal(a1-2)Gal = molecular target: Gal(a1-2)Gal
# In short: as §1
# Gal(a1-3)Gal = molecular target: Gal(a1-3)Gal
# In short: as §1
# Gal(a1-3)Gal(b1-3)GlcNAc = molecular target: Gal(a1-3)Gal(b1-3)GlcNAc
# In short: as §1
# [19] = molecular target: Gal(a1-3)Gal(b1-3)GlcNAc(b1-2)Man
# In short: as §1
# [20] = molecular target: Gal(a1-3)Gal(b1-3)GlcNAc(b1-2)Man(a1-3)[Gal(a1-3)Gal(b1-3)GlcNAc(b1-2)Man(a1-6)]Man(b1-4)GlcNAc(b1-4)GlcNAc
# In short: as §1
# [21] = molecular target: Gal(a1-3)Gal(b1-3)GlcNAc(b1-3)GalNAc
# In short: as §1
# [22] = molecular target: Gal(a1-3)Gal(b1-3)GlcNAc(b1-6)GalNAc
# In short: as §1
# [23] = molecular target: Gal(a1-3)Gal(b1-3)[Fuc(a1-4)]GlcNAc(b1-2)Man(a1-3)[Gal(a1-3)Gal(b1-3)[Fuc(a1-4)]GlcNAc(b1-2)Man(a1-6)]Man(b1-4)GlcNAc(b1-4)GlcNAc
# In short: as §1
# Gal(a1-3)Gal(b1-4)Glc = molecular target: Gal(a1-3)Gal(b1-4)Glc
# In short: as §1
# Gal(a1-3)Gal(b1-4)GlcNAc = molecular target: Gal(a1-3)Gal(b1-4)GlcNAc
# In short: as §1
# [24] = molecular target: Gal(a1-3)Gal(b1-4)GlcNAc(b1-2)Man
# In short: as §1
# [25] = molecular target: Gal(a1-3)Gal(b1-4)GlcNAc(b1-2)Man(a1-3)[Gal(a1-3)Gal(b1-4)GlcNAc(b1-2)Man(a1-6)]Man(b1-4)GlcNAc(b1-4)GlcNAc
# In short: as §1
# [26] = molecular target: Gal(a1-3)Gal(b1-4)GlcNAc(b1-3)GalNAc
# In short: as §1
# [27] = molecular target: Gal(a1-3)Gal(b1-4)GlcNAc(b1-6)GalNAc
# In short: as §1
# [28] = molecular target: Gal(a1-3)Gal(b1-4)[Fuc(a1-3)]GlcNAc
# In short: as §1
# [29] = molecular target: Gal(a1-3)Gal(b1-4)[Fuc(a1-3)]GlcNAc(b1-2)Man(a1-3)[Gal(a1-3)Gal(b1-4)[Fuc(a1-3)]GlcNAc(b1-2)Man(a1-6)]Man(b1-4)GlcNAc(b1-4)GlcNAc
# In short: as §1
# Gal(a1-3)GalNAc = molecular target: Gal(a1-3)GalNAc
# In short: as §1
# [30] = molecular target: Gal(a1-3)[Gal(a1-4)]Gal(b1-4)GlcNAc
# In short: as §1
# [31] = molecular target: Gal(a1-4)Gal(b1-3)GlcNAc(b1-2)Man(a1-3)[Gal(a1-4)Gal(b1-3)GlcNAc(b1-2)Man(a1-6)]Man(b1-4)GlcNAc(b1-4)GlcNAc
# In short: as §1
# Gal(a1-4)Gal(b1-4)Glc = molecular target: Gal(a1-4)Gal(b1-4)Glc
# In short: as §1
# Gal(a1-4)Gal(b1-4)GlcNAc = molecular target: Gal(a1-4)Gal(b1-4)GlcNAc
# In short: as §1
# [32] = molecular target: Gal(a1-4)Gal(b1-4)GlcNAc(b1-2)Man(a1-3)[Gal(a1-4)Gal(b1-4)GlcNAc(b1-2)Man(a1-6)]Man(b1-4)GlcNAc(b1-4)GlcNAc
# In short: as §1
# [33] = molecular target: Gal(a1-4)Gal(b1-4)GlcNAc(b1-3)Gal(b1-4)Glc
# In short: as §1
# Gal(a1-4)GlcNAc = molecular target: Gal(a1-4)GlcNAc
# In short: as §1
binder,measurement,setting,value
B1,glycan array binding signal (z-score),[1],-0.373
same,glycan array binding signal (z-score),Fuc(a1-3)GlcNAc,-0.133
same,glycan array binding signal (z-score),[2],-0.213
same,glycan array binding signal (z-score),[3],-0.472
same,glycan array binding signal (z-score),[4],0.417
same,glycan array binding signal (z-score),[5],-0.027
same,glycan array binding signal (z-score),[6],0.415
same,glycan array binding signal (z-score),[7],-0.054
same,glycan array binding signal (z-score),[8],-0.438
same,glycan array binding signal (z-score),[9],-0.778
same,glycan array binding signal (z-score),[10],-0.214
same,glycan array binding signal (z-score),[11],0.436
same,glycan array binding signal (z-score),[12],0.098
same,glycan array binding signal (z-score),[13],0.001
same,glycan array binding signal (z-score),[14],-0.247
same,glycan array binding signal (z-score),[15],-0.662
same,glycan array binding signal (z-score),[16],-0.346
same,glycan array binding signal (z-score),[17],0.658
same,glycan array binding signal (z-score),[18],-0.791
same,glycan array binding signal (z-score),Fuc(a1-4)GlcNAc,-0.188
same,glycan array binding signal (z-score),Fuc(b1-3)GlcNAc,0.271
same,glycan array binding signal (z-score),Gal(a1-2)Gal,-0.764
same,glycan array binding signal (z-score),Gal(a1-3)Gal,-0.227
same,glycan array binding signal (z-score),Gal(a1-3)Gal(b1-3)GlcNAc,-0.536
same,glycan array binding signal (z-score),[19],-0.467
same,glycan array binding signal (z-score),[20],0.406
same,glycan array binding signal (z-score),[21],0.065
same,glycan array binding signal (z-score),[22],-0.422
same,glycan array binding signal (z-score),[23],1.62
same,glycan array binding signal (z-score),Gal(a1-3)Gal(b1-4)Glc,-0.277
same,glycan array binding signal (z-score),Gal(a1-3)Gal(b1-4)GlcNAc,-0.297
same,glycan array binding signal (z-score),[24],-0.237
same,glycan array binding signal (z-score),[25],0.5
same,glycan array binding signal (z-score),[26],-0.902
same,glycan array binding signal (z-score),[27],-0.405
same,glycan array binding signal (z-score),[28],-0.643
same,glycan array binding signal (z-score),[29],1.2
same,glycan array binding signal (z-score),Gal(a1-3)GalNAc,-0.331
same,glycan array binding signal (z-score),[30],0.059
same,glycan array binding signal (z-score),[31],-0.225
same,glycan array binding signal (z-score),Gal(a1-4)Gal(b1-4)Glc,-0.252
same,glycan array binding signal (z-score),Gal(a1-4)Gal(b1-4)GlcNAc,0.039
same,glycan array binding signal (z-score),[32],0.205
same,glycan array binding signal (z-score),[33],0.039
same,glycan array binding signal (z-score),Gal(a1-4)GlcNAc,-0.561

# Two entries picked at random from the list so far:
binder,measurement,setting,value
B1,glycan array binding signal (z-score),[5],-0.027
same,glycan array binding signal (z-score),[18],-0.791
